Source: PubChem BioAssay AID2685 (National Center for Advancing Translational Sciences (NCATS), 2010)
Some of the results follow. Further columns of the screen follow, without active or inactive calls. Most of these compounds were active or inconclusive in the main read-out, so they are no random draw. Words in brackets tell the shape of the fitted curve; partial curves, single points and poor fits give uncertain potencies.

Experiment: qHTS Assay for Lipid Storage Modulators in Drosophila S3 Cells;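 as to cell number change: cells counted by Cell Tracker Red CMTPX staining in the red channel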
Conditions: BODIPY lipid droplet fluorescence, 18-24 h; for cell number change: measured here: cell count max response, cells fed with added oleic acid
Summary of the method: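 Drosophila S3 cells got compounds at several concentrations plus oleic acid (400 uM solution). Laser-scanning cytometry with 488 nm excitation read lipid droplets at 500-530 nm and cells at 575-640 nm. Percent activity was relative to 20 uM Triacsin C.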

[1] = measured here: cell number channel AC50, cells fed with added oleic acid
[2] = measured here: lipid fluorescence (Fed channel) AC50, cells fed with added oleic acid

Row | Structure (SMILES) | cell number change | AC50 [1] | AC50 [2]
1 | Cc1cccc(NC2=CC(=O)OC(C)C2)c1 (stereo not given) | 26.9% | 0.651 µM [falling, full curve] | 6.51 µM [falling, single point]
2 | CN(CC(O)COc1ccccc1F)C1CCCCC1 (stereo not given) | -16.1% | – | 35.5 µM [falling, single point]
3 | O=C(c1ccccn1)N1N=C2/C(=C/c3ccccc3)CCCC2C1c1ccccc1 (stereo not given) | -0.804% | 2.31 µM [rising, partial curve] | –
4 | CCOc1ccccc1NC(=O)NS(=O)(=O)c1ccc(C)cc1 | 6.09% | 4.61 µM [falling, single point] | –
5 | CCOC(=O)c1sc(NC(=O)CSc2ncn[nH]2)c(C#N)c1C | -20.1% | – | 2.91 µM [rising, partial curve]
6 | COC(=O)C1(Cc2cc(-c3cccnc3)no2)CCN(C(=O)OC(C)(C)C)CC1 | 12% | – | 10.3 µM [falling, partial curve, poor fit]
7 | COc1cc(OC)c(OC)cc1/C=N/Nc1ncnc2c1[nH]c1ccccc12 | 7.83% | 6.51 µM [rising, single point] | 4.11 µM [rising, single point]
8 | O=C(CN1CCCCC1)Nc1ccc(S(=O)(=O)N2CCCCCC2)cc1 | -8.65% | – | –
9 | Cc1ccc(-n2c(SCC(N)=O)nnc2-c2cccnc2)c(C)c1 | 6.85% | – | 14.6 µM [rising, single point]
10 | CCN1C(=O)/C(=C/c2cccs2)SC1=Nc1ccc(OC)cc1 | -11.7% | 1.03 µM [rising, partial curve] | –
11 | CCC(C)Sc1cccc(-c2nc3cc(C)ccn3c2NCc2ccccc2)c1 (stereo not given) | -57% | 10.3 µM [falling, partial curve] | –
12 | O=C(NCCn1cccn1)C1CCC(=O)N(CCc2ccccc2)C1 (stereo not given) | 17.3% | – | –
13 | Cc1ccc2sc(N(CCCN(C)C)C(=O)c3nc4ccccc4s3)nc2c1C | -67% | 2.31 µM [falling, partial curve] | 5.8 µM [falling, full curve]
14 | O=C(O)COc1ccccc1/C=N/NC(=O)c1cc(-c2ccc(F)cc2)nc2ccccc12 | -88.9% | 18.4 µM [falling, single point] | –
15 | COc1cc(/C=C/C(=O)N(Cc2ccccc2)c2ccccn2)cc(OC)c1OC | 21.2% | – | 5.17 µM [rising, full curve, poor fit]
16 | CC(=O)Nc1ccc(S(=O)(=O)N/N=C/c2ccc(C)o2)cc1 | 27.2% | – | 0.58 µM [rising, single point]
17 | O=C(c1n[nH]c2ccccc12)N1CCOCC1 | -23.7% | 0.112 µM [falling, full curve, poor fit] | –

As entered above.
Entry for CC(=O)Nc1ccc(S(=O)(=O)N/N=C/c2ccc(C)o2)cc1 under AC50 [2]: 0.58 µM [rising, single point]
Entry for O=C(c1n[nH]c2ccccc12)N1CCOCC1 under cell number change: -23.7%
